Data reported in publication PMC6683124.

Biological target: T1, bicaudal D homolog 1 (human (endogenous in UCB-MSCs)) (UniProt Q96G01)
T1 sequence: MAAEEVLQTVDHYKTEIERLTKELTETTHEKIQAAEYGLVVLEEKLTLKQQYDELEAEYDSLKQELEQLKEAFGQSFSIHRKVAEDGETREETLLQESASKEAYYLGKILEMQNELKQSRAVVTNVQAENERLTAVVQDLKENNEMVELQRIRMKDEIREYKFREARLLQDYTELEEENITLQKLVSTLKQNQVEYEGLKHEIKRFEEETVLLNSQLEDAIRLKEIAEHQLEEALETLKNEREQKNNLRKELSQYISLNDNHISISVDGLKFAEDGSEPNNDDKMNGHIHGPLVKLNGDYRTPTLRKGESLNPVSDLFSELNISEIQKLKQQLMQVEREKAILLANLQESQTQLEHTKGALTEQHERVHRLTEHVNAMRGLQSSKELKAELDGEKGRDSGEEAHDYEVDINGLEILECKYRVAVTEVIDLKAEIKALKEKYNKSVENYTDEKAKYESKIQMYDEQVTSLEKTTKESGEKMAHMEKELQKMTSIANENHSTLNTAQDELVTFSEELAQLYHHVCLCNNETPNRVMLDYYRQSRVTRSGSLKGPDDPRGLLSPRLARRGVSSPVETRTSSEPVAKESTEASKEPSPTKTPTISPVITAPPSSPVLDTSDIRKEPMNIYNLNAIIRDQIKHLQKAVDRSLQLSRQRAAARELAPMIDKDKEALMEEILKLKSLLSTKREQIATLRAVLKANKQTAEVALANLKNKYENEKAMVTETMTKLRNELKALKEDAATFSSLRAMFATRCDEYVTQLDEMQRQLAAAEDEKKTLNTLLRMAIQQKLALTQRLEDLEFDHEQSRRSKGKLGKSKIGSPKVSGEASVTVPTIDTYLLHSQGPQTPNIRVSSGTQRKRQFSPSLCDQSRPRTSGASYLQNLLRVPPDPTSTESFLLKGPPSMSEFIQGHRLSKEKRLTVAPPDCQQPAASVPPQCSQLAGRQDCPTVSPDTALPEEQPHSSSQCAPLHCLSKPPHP
Assay: co-IP; UCB-MSC lysate (20 mM Tris-HCl pH 8.0, 137 mM NaCl, 1% Nonidet P-40, 2 mM EDTA) incubated 6 h at 4°C with BICD1 or rabbit IgG antibodies on protein G magnetic beads; blotted for HIF1α and Dynein IC; cells with or without cycloheximide (10 μM) pretreatment and cP1P (1 μM) for 24 h

In the case of “dynein intermediate chain (human (endogenous in UCB-MSCs))”, the binding is reported as “binds”.

No constants are given. Whether binding was seen depends on the method and setting. Binding seen in cells or lysates may run through a third protein. A result given as binding can be weak or reduced; the word gives no strength.
